{"source": "the supplement of paper PMC10077471", "note": "Over roughly 1,900 compounds, “excess over highest single agent (ExcessHSA) synergy score, 6x6 matrix” has its median near -83; the lowest 2% begin near -370. The list shows a part of the results.", "data": [{"test_system": "NCI-H446", "test": "excess over highest single agent (ExcessHSA) synergy score, 6x6 matrix; higher = less synergy (more negative = stronger synergy)", "settings": "72 h; CellTiter-Glo viability", "values": [{"smiles": "COc1cc2/c(=N/c3ccc(Br)cc3F)nc[nH]c2cc1OCC1CCN(C)CC1", "note": "+ Cc1sc2c(c1C)C(c1ccc(Cl)cc1)=N[C@@H](CC(=O)OC(C)(C)C)c1nnc(C)n1-2 [NCGC00250412-19]", "excess over highest single agent": -157}, {"smiles": "Nc1c2c(nc3ccccc13)CCCC2", "note": "+ Cc1sc2c(c1C)C(c1ccc(Cl)cc1)=N[C@@H](CC(=O)OC(C)(C)C)c1nnc(C)n1-2 [NCGC00250412-19]", "excess over highest single agent": -80.3}, {"smiles": "CCCCC(CC)COC(=O)C(C#N)=C(c1ccccc1)c1ccccc1", "note": "(configuration not stated) + Cc1sc2c(c1C)C(c1ccc(Cl)cc1)=N[C@@H](CC(=O)OC(C)(C)C)c1nnc(C)n1-2 [NCGC00250412-19]", "excess over highest single agent": -86.5}, {"smiles": "COc1ccc2c(c1)c(C1=C(c3c[nH]c4ccccc34)C(=O)NC1=O)cn2CCCN(C)C", "note": "+ Cc1sc2c(c1C)C(c1ccc(Cl)cc1)=N[C@@H](CC(=O)OC(C)(C)C)c1nnc(C)n1-2 [NCGC00250412-19]", "excess over highest single agent": 146}, {"smiles": "O=c1cc(-c2ccccc2)oc2cc(O)cc(O)c12", "note": "+ Cc1sc2c(c1C)C(c1ccc(Cl)cc1)=N[C@@H](CC(=O)OC(C)(C)C)c1nnc(C)n1-2 [NCGC00250412-19]", "excess over highest single agent": -97.1}, {"smiles": "O=C(CCCCCCC(=O)Nc1ccccc1)NO", "note": "+ Cc1sc2c(c1C)C(c1ccc(Cl)cc1)=N[C@@H](CC(=O)OC(C)(C)C)c1nnc(C)n1-2 [NCGC00250412-19]", "excess over highest single agent": -29.9}, {"smiles": "NC[C@H]1O[C@H](O[C@H]2[C@H](O)[C@@H](O[C@H]3O[C@H](CO)[C@@H](O)[C@H](N)[C@H]3O)[C@H](N)C[C@@H]2N)[C@H](O)[C@@H](O)[C@@H]1O", "note": "+ Cc1sc2c(c1C)C(c1ccc(Cl)cc1)=N[C@@H](CC(=O)OC(C)(C)C)c1nnc(C)n1-2 [NCGC00250412-19]", "excess over highest single agent": -44.7}, {"smiles": "CC(C)[C@H]1C(=O)N[C@H](CO)Cc2c[nH]c3cccc(c23)N1C", "note": "+ Cc1sc2c(c1C)C(c1ccc(Cl)cc1)=N[C@@H](CC(=O)OC(C)(C)C)c1nnc(C)n1-2 [NCGC00250412-19]", "excess over highest single agent": -180}, {"smiles": "COc1ccc(S(=O)(=O)Nc2cccnc2Nc2ccc(O)cc2)cc1", "note": "+ Cc1sc2c(c1C)C(c1ccc(Cl)cc1)=N[C@@H](CC(=O)OC(C)(C)C)c1nnc(C)n1-2 [NCGC00250412-19]", "excess over highest single agent": -161}, {"smiles": "O=C(Nc1cc2cc[nH]c2cn1)c1ccccc1", "note": "+ Cc1sc2c(c1C)C(c1ccc(Cl)cc1)=N[C@@H](CC(=O)OC(C)(C)C)c1nnc(C)n1-2 [NCGC00250412-19]", "excess over highest single agent": -102}, {"smiles": "Cc1ccc(NC(=O)c2cccc(N(C)C)c2)cc1NC(=O)c1ccc(O)cc1", "note": "+ Cc1sc2c(c1C)C(c1ccc(Cl)cc1)=N[C@@H](CC(=O)OC(C)(C)C)c1nnc(C)n1-2 [NCGC00250412-19]", "excess over highest single agent": -6.49}, {"smiles": "O=C1NCCc2[nH]c(-c3ccncc3)cc21", "note": "+ Cc1sc2c(c1C)C(c1ccc(Cl)cc1)=N[C@@H](CC(=O)OC(C)(C)C)c1nnc(C)n1-2 [NCGC00250412-19]", "excess over highest single agent": 14.8}, {"smiles": "CCNC(=O)CCC/C=C\\C[C@@H]1[C@@H](/C=C/[C@@H](O)CCc2ccccc2)[C@H](O)C[C@@H]1O", "note": "+ Cc1sc2c(c1C)C(c1ccc(Cl)cc1)=N[C@@H](CC(=O)OC(C)(C)C)c1nnc(C)n1-2 [NCGC00250412-19]", "excess over highest single agent": 17.4}, {"smiles": "C/C=C/C[C@@H](C)C(=O)[C@H]1C(=O)N[C@@H](C(C)C)C(=O)N(C)CC(=O)N(C)[C@@H](CC(C)C)C(=O)N[C@@H](C(C)C)C(=O)N(C)[C@@H](CC(C)C)C(=O)N[C@@H](C)C(=O)N[C@H](C)C(=O)N(C)[C@@H](CC(C)C)C(=O)N(C)[C@@H](CC(C)C)C(=O)N(C)[C@@H](C(C)C)C(=O)N1C", "note": "+ Cc1sc2c(c1C)C(c1ccc(Cl)cc1)=N[C@@H](CC(=O)OC(C)(C)C)c1nnc(C)n1-2 [NCGC00250412-19]", "excess over highest single agent": -166}, {"smiles": "CC1(C)O[C@@H]2C[C@H]3[C@@H]4CCC5=CC(=O)C=C[C@]5(C)[C@H]4[C@@H](O)C[C@]3(C)[C@]2(C(=O)CO)O1", "note": "+ Cc1sc2c(c1C)C(c1ccc(Cl)cc1)=N[C@@H](CC(=O)OC(C)(C)C)c1nnc(C)n1-2 [NCGC00250412-19]", "excess over highest single agent": 26.7}, {"smiles": "O=C(O)c1ccc2c(c1)nc(Nc1cccc(Cl)c1)c1ccncc12", "note": "+ Cc1sc2c(c1C)C(c1ccc(Cl)cc1)=N[C@@H](CC(=O)OC(C)(C)C)c1nnc(C)n1-2 [NCGC00250412-19]", "excess over highest single agent": -118}, {"smiles": "c1cc2c(cc1[C@H]1OC[C@H]3[C@@H]1CO[C@@H]3c1ccc3c(c1)OCO3)OCO2", "note": "+ Cc1sc2c(c1C)C(c1ccc(Cl)cc1)=N[C@@H](CC(=O)OC(C)(C)C)c1nnc(C)n1-2 [NCGC00250412-19]", "excess over highest single agent": -8.93}, {"smiles": "COc1cc(Cl)cn2c(-c3cccc(NC4CNC4)n3)cnc12", "note": "+ Cc1sc2c(c1C)C(c1ccc(Cl)cc1)=N[C@@H](CC(=O)OC(C)(C)C)c1nnc(C)n1-2 [NCGC00250412-19]", "excess over highest single agent": -67.2}, {"smiles": "C[C@]1(c2nc3c(C(N)=O)cccc3[nH]2)CCCN1", "note": "+ Cc1sc2c(c1C)C(c1ccc(Cl)cc1)=N[C@@H](CC(=O)OC(C)(C)C)c1nnc(C)n1-2 [NCGC00250412-19]", "excess over highest single agent": -166}, {"smiles": "CC(=O)N[C@@H](CS)C(=O)O", "note": "+ Cc1sc2c(c1C)C(c1ccc(Cl)cc1)=N[C@@H](CC(=O)OC(C)(C)C)c1nnc(C)n1-2 [NCGC00250412-19]", "excess over highest single agent": 1.49}, {"smiles": "CCCn1c(=O)c2nc(C34CC5CC(CC3C5)C4)[nH]c2n(CCC)c1=O", "note": "+ Cc1sc2c(c1C)C(c1ccc(Cl)cc1)=N[C@@H](CC(=O)OC(C)(C)C)c1nnc(C)n1-2 [NCGC00250412-19]", "excess over highest single agent": -113}, {"smiles": "O=C(O)Cc1cccc(OCCCN(Cc2cccc(C(F)(F)F)c2Cl)CC(c2ccccc2)c2ccccc2)c1", "note": "+ Cc1sc2c(c1C)C(c1ccc(Cl)cc1)=N[C@@H](CC(=O)OC(C)(C)C)c1nnc(C)n1-2 [NCGC00250412-19]", "excess over highest single agent": -42.3}, {"smiles": "O=c1cc(-c2ccccc2)oc2cc(O)c(O)c(O)c12", "note": "+ Cc1sc2c(c1C)C(c1ccc(Cl)cc1)=N[C@@H](CC(=O)OC(C)(C)C)c1nnc(C)n1-2 [NCGC00250412-19]", "excess over highest single agent": -87.8}, {"smiles": "COc1cc(C2Oc3cc([C@H]4Oc5cc(O)cc(O)c5C(=O)[C@@H]4O)ccc3OC2CO)ccc1O", "note": "(some centres not stated) + Cc1sc2c(c1C)C(c1ccc(Cl)cc1)=N[C@@H](CC(=O)OC(C)(C)C)c1nnc(C)n1-2 [NCGC00250412-19]", "excess over highest single agent": -159}, {"smiles": "CCNC(=O)Nc1ccc2ncc(Nc3ccc(C)cc3)nc2n1", "note": "+ Cc1sc2c(c1C)C(c1ccc(Cl)cc1)=N[C@@H](CC(=O)OC(C)(C)C)c1nnc(C)n1-2 [NCGC00250412-19]", "excess over highest single agent": 105}, {"smiles": "CC[C@H](C)C(=O)O[C@H]1C[C@@H](C)C=C2C=C[C@H](C)[C@H](CC[C@@H]3C[C@@H](O)CC(=O)O3)[C@H]21", "note": "+ Cc1sc2c(c1C)C(c1ccc(Cl)cc1)=N[C@@H](CC(=O)OC(C)(C)C)c1nnc(C)n1-2 [NCGC00250412-19]", "excess over highest single agent": -89.4}, {"smiles": "Clc1ccc(C(Cn2ccnc2)OCc2ccc(Sc3ccccc3)cc2)c(Cl)c1", "note": "(configuration not stated) + Cc1sc2c(c1C)C(c1ccc(Cl)cc1)=N[C@@H](CC(=O)OC(C)(C)C)c1nnc(C)n1-2 [NCGC00250412-19]", "excess over highest single agent": -35.3}, {"smiles": "COc1cccc2cc(-c3nc([C@H]4CC[C@H](C(=O)O)CC4)n4ncnc(N)c34)[nH]c12", "note": "+ Cc1sc2c(c1C)C(c1ccc(Cl)cc1)=N[C@@H](CC(=O)OC(C)(C)C)c1nnc(C)n1-2 [NCGC00250412-19]", "excess over highest single agent": -255}, {"smiles": "O=C1CCC[C@@H]2[C@H]3CCC[N+]4([O-])CCC[C@@H](CN12)[C@@H]34", "note": "(some centres not stated) + Cc1sc2c(c1C)C(c1ccc(Cl)cc1)=N[C@@H](CC(=O)OC(C)(C)C)c1nnc(C)n1-2 [NCGC00250412-19]", "excess over highest single agent": -73.2}, {"smiles": "CC(C)n1c(/C=C/C(O)CC(O)CC(=O)O)c(-c2ccc(F)cc2)c2ccccc21", "note": "(configuration not stated) + Cc1sc2c(c1C)C(c1ccc(Cl)cc1)=N[C@@H](CC(=O)OC(C)(C)C)c1nnc(C)n1-2 [NCGC00250412-19]", "excess over highest single agent": -43.4}, {"smiles": "O=c1ccn([C@@H]2O[C@H](CO)[C@@H](O)[C@H]2O)c(=O)[nH]1", "note": "+ Cc1sc2c(c1C)C(c1ccc(Cl)cc1)=N[C@@H](CC(=O)OC(C)(C)C)c1nnc(C)n1-2 [NCGC00250412-19]", "excess over highest single agent": -93.4}, {"smiles": "CC(=O)NC(C)c1ccc(Oc2ccc(OC(C)C)cc2)cc1", "note": "(configuration not stated) + Cc1sc2c(c1C)C(c1ccc(Cl)cc1)=N[C@@H](CC(=O)OC(C)(C)C)c1nnc(C)n1-2 [NCGC00250412-19]", "excess over highest single agent": -47.6}, {"smiles": "COc1ccc2c(c1)CC[C@H](CN(C)CC(=O)O)[C@@H]2c1ccccc1", "note": "+ Cc1sc2c(c1C)C(c1ccc(Cl)cc1)=N[C@@H](CC(=O)OC(C)(C)C)c1nnc(C)n1-2 [NCGC00250412-19]", "excess over highest single agent": -220}, {"smiles": "CCCCNc1cc(C(=O)O)cc(S(N)(=O)=O)c1Oc1ccccc1", "note": "+ Cc1sc2c(c1C)C(c1ccc(Cl)cc1)=N[C@@H](CC(=O)OC(C)(C)C)c1nnc(C)n1-2 [NCGC00250412-19]", "excess over highest single agent": -60.7}, {"smiles": "COC(=O)N[C@H](C(=O)N[C@@H](Cc1ccccc1)[C@@H](O)CN(Cc1ccc(-c2ccccn2)cc1)NC(=O)[C@@H](NC(=O)OC)C(C)(C)C)C(C)(C)C", "note": "+ Cc1sc2c(c1C)C(c1ccc(Cl)cc1)=N[C@@H](CC(=O)OC(C)(C)C)c1nnc(C)n1-2 [NCGC00250412-19]", "excess over highest single agent": -165}, {"smiles": "CNC[C@H](O)[C@@H](O)[C@H](O)[C@H](O)CO", "note": "+ Cc1sc2c(c1C)C(c1ccc(Cl)cc1)=N[C@@H](CC(=O)OC(C)(C)C)c1nnc(C)n1-2 [NCGC00250412-19]", "excess over highest single agent": -244}, {"smiles": "NCCCC(O)(P(=O)(O)O)P(=O)(O)O", "note": "+ Cc1sc2c(c1C)C(c1ccc(Cl)cc1)=N[C@@H](CC(=O)OC(C)(C)C)c1nnc(C)n1-2 [NCGC00250412-19]", "excess over highest single agent": -12.1}]}]}
